# The other results are listed elsewhere or left out. Repeats are few or missing, and single values can be far off.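 Cells were imaged in 1,536-well plates, and nuclei stained with an antibody against cleaved PARP were counted against all DNA-stained nuclei to give the apoptosis fraction. Screening doses were chosen to leave most cells alive, and resting and induced cleaved-PARP levels differ strongly between cell lines.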
# System: MeWo
# Assay: cleaved PARP positive nuclei fraction relative to DMSO control; melanoma cells; higher = more apoptosis
# Conditions: library dose: low library concentration; 72 h
row,Compound,cleaved PARP positive nuclei fraction
1,"C[As](C)SC[C@H](NC(=O)CC[C@H](N)C(=O)O)C(=O)NCC(=O)O [Darinaparsin] + O=C(Nc1ccccc1)c1cc([N+](=O)[O-])ccc1Cl [GW9662] (first compound 0.4 µM, partner dose 2 µM)",29.6%
2,"C[C@]12O[C@H](C[C@]1(O)CO)n1c3ccccc3c3c4c(c5c6ccccc6n2c5c31)CNC4=O [Lestaurtinib] + O=C(O)c1ccc(-c2c[nH]c3ncc(-c4ccccc4)cc23)cc1C1CCCC1 [GSK650394] (first compound 0.004 µM, partner dose 0.16 µM)",109%
3,"C[C@]12O[C@H](C[C@]1(O)CO)n1c3ccccc3c3c4c(c5c6ccccc6n2c5c31)CNC4=O [Lestaurtinib] + Oc1cc(-c2nc(-c3ccccc3)[nH]c2-c2ccncc2)ccc1Cl [L779450] (first compound 0.004 µM, partner dose 0.2 µM)",22.7%
4,"COc1ccc2c(c1)CCC1C2CCC2(C)C(NCCCCCCN3C(=O)C=CC3=O)CCC12 (stereo not given) + C/C(O)=C(\C#N)C(=O)Nc1cc(Br)ccc1Br [LFM-A13] (first compound 0.4 µM, partner dose 2 µM)",59%
5,"Cc1cc(SCc2sc(-c3ccc(C(F)(F)F)c(F)c3)nc2C)ccc1OCC(=O)O + C/C(O)=C(\C#N)C(=O)Nc1cc(Br)ccc1Br [LFM-A13] (first compound 2 µM, partner dose 2 µM)",188%
6,"COC(=O)c1sccc1S(=O)(=O)Nc1ccc(Nc2ccccc2)cc1OC + C/C(O)=C(\C#N)C(=O)Nc1cc(Br)ccc1Br [LFM-A13] (first compound 1 µM, partner dose 2 µM)",76.3%
7,"O=C(O)c1ccc(-c2c[nH]c3ncc(-c4ccccc4)cc23)cc1C1CCCC1 + O=C(Oc1ccc([N+](=O)[O-])cc1)N1CCC(C(O)(c2ccc3c(c2)OCO3)c2ccc3c(c2)OCO3)CC1 [JZL184] (first compound 0.16 µM, partner dose 1 µM)",57.5%
8,"C[C@@H]1CCN(C(=O)CC#N)C[C@@H]1N(C)c1ncnc2[nH]ccc12 + Cc1cc(SCc2sc(-c3ccc(C(F)(F)F)c(F)c3)nc2C)ccc1OCC(=O)O [GW0742] (first compound 1 µM, partner dose 2 µM)",107%
9,"O=C(Nc1cccc(Cl)c1)Nc1ncc(CCNc2ncnc3ccsc23)s1 + Cc1cc(SCc2sc(-c3ccc(C(F)(F)F)c(F)c3)nc2C)ccc1OCC(=O)O [GW0742] (first compound 0.0008 µM, partner dose 2 µM)",154%
10,"C[C@]12O[C@H](C[C@]1(O)CO)n1c3ccccc3c3c4c(c5c6ccccc6n2c5c31)CNC4=O [Lestaurtinib] + COc1cc2ncnc(Nc3ccc(Oc4ccccc4)cc3)c2cc1OC [SrcI1] (first compound 0.004 µM, partner dose 2 µM)",119%
11,"C[As](C)SC[C@H](NC(=O)CC[C@H](N)C(=O)O)C(=O)NCC(=O)O [Darinaparsin] + COc1ccc(COc2ccc(Cc3cnc(N)nc3N)cc2OC)cc1 [GW2580] (first compound 0.4 µM, partner dose 1 µM)",98.8%
12,"C[C@]12O[C@H](C[C@]1(O)CO)n1c3ccccc3c3c4c(c5c6ccccc6n2c5c31)CNC4=O [Lestaurtinib] + COc1ccc(-c2ccc3c(N4CCOCC4)nc(N4C[C@@H](C)O[C@@H](C)C4)nc3n2)cc1CO [KU0063794] (first compound 0.004 µM, partner dose 0.02 µM)",112%
13,"O=S(=O)(c1ccccc1)N(CC(F)(F)F)c1ccc(C(O)(C(F)(F)F)C(F)(F)F)cc1 + Cc1cc(SCc2sc(-c3ccc(C(F)(F)F)c(F)c3)nc2C)ccc1OCC(=O)O [GW0742] (first compound 1.4 µM, partner dose 2 µM)",26%
14,"COc1ccc(COc2ccc(Cc3cnc(N)nc3N)cc2OC)cc1 + Cc1cc(SCc2sc(-c3ccc(C(F)(F)F)c(F)c3)nc2C)ccc1OCC(=O)O [GW0742] (first compound 1 µM, partner dose 2 µM)",53.7%
15,"C[As](C)SC[C@H](NC(=O)CC[C@H](N)C(=O)O)C(=O)NCC(=O)O [Darinaparsin] + CCc1ccc(CCOc2ccc(CC3SC(=O)NC3=O)cc2)nc1 [pioglitazone] (first compound 0.4 µM, partner dose 2 µM)",38.7%

# A different layout for some results above.
row | Compound | cleaved PARP positive nuclei fraction
10 | C[C@]12O[C@H](C[C@]1(O)CO)n1c3ccccc3c3c4c(c5c6ccccc6n2c5c31)CNC4=O [Lestaurtinib] + COc1cc2ncnc(Nc3ccc(Oc4ccccc4)cc3)c2cc1OC [SrcI1] (first compound 0.004 µM, partner dose 2 µM) | 119%
11 | C[As](C)SC[C@H](NC(=O)CC[C@H](N)C(=O)O)C(=O)NCC(=O)O [Darinaparsin] + COc1ccc(COc2ccc(Cc3cnc(N)nc3N)cc2OC)cc1 [GW2580] (first compound 0.4 µM, partner dose 1 µM) | 98.8%

# Source: the supplement of paper PMC4604168 (melanoma cell lines)
